From publication PMC7971226
Results are given in words; binding and its absence hold for the method and conditions named. In cells and extracts the contact can be indirect. Some entries that bind do so weakly or less than the wild type.

Amino acid sequences for entries named in this document (tags omitted). A change or cut given only in a name is not applied to a line headed by its entry.
UniProt P05556: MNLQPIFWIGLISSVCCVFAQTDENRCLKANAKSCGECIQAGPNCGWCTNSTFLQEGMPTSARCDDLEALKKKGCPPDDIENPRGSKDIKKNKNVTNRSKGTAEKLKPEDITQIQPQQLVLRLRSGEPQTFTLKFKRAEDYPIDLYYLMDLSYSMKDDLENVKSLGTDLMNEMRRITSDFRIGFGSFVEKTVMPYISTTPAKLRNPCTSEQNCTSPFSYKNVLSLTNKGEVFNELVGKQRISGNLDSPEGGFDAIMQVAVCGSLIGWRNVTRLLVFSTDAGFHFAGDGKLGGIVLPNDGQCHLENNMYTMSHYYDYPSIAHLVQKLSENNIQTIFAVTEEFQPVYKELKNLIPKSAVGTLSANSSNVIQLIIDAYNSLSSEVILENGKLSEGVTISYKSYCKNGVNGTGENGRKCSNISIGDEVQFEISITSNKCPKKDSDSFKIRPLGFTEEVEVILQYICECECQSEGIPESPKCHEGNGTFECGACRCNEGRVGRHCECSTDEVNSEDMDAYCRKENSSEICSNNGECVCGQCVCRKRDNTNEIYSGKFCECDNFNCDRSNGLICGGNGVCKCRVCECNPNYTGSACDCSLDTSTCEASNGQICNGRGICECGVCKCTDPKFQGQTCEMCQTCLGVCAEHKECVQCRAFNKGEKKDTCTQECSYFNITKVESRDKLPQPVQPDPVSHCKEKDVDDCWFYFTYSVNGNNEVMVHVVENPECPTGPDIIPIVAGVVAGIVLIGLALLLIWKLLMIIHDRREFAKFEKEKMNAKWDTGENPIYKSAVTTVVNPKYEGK
UniProt Q05397: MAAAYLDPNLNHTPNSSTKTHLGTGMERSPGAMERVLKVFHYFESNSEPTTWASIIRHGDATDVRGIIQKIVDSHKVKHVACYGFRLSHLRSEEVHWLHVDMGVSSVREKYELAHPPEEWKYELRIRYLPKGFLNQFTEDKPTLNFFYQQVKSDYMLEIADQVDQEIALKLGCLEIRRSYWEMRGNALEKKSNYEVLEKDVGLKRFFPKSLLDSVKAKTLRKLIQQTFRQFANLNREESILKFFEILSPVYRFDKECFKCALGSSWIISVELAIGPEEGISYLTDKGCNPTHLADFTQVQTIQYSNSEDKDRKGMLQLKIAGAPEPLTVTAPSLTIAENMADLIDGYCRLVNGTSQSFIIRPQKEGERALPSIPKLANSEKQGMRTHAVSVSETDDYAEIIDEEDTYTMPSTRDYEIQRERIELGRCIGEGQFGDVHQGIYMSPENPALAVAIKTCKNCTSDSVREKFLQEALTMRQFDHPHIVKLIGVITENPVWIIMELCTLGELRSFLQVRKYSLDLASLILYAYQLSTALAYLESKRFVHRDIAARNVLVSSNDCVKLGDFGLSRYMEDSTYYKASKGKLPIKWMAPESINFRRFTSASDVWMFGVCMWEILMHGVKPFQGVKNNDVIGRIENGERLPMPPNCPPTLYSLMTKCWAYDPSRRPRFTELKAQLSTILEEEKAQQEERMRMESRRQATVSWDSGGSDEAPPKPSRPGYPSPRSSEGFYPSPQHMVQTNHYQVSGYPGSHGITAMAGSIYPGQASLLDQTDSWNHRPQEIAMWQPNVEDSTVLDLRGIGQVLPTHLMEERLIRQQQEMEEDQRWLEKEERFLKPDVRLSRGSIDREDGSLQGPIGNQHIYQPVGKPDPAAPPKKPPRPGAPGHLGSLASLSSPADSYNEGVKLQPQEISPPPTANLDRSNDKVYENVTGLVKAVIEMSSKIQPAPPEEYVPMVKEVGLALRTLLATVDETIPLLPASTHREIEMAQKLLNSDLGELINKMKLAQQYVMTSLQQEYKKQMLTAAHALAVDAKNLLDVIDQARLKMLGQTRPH

Experiments:
[1] = molecular target: T1, Neogenin-1 (human (endogenous in SK-N-SH)) (UniProt Q92859); experiment: co-IP; endogenous proteins of SK-N-SH cells; cells incubated 1 h with rhNTN1 in serum-free DMEM (25 ng/ml for NEO1-FAK; 200 ng/ml in the methods, 100 ng/ml in the results, for NEO1-integrin β1; treatment not told for FAK-integrin β1); extracts in 20 mM Tris pH 7.4, 150 mM NaCl, 1% NP-40; anti-FAK, anti-NEO1 or anti-integrin β1 on Dynabeads protein A, 1 h; Western blot
T1 sequence: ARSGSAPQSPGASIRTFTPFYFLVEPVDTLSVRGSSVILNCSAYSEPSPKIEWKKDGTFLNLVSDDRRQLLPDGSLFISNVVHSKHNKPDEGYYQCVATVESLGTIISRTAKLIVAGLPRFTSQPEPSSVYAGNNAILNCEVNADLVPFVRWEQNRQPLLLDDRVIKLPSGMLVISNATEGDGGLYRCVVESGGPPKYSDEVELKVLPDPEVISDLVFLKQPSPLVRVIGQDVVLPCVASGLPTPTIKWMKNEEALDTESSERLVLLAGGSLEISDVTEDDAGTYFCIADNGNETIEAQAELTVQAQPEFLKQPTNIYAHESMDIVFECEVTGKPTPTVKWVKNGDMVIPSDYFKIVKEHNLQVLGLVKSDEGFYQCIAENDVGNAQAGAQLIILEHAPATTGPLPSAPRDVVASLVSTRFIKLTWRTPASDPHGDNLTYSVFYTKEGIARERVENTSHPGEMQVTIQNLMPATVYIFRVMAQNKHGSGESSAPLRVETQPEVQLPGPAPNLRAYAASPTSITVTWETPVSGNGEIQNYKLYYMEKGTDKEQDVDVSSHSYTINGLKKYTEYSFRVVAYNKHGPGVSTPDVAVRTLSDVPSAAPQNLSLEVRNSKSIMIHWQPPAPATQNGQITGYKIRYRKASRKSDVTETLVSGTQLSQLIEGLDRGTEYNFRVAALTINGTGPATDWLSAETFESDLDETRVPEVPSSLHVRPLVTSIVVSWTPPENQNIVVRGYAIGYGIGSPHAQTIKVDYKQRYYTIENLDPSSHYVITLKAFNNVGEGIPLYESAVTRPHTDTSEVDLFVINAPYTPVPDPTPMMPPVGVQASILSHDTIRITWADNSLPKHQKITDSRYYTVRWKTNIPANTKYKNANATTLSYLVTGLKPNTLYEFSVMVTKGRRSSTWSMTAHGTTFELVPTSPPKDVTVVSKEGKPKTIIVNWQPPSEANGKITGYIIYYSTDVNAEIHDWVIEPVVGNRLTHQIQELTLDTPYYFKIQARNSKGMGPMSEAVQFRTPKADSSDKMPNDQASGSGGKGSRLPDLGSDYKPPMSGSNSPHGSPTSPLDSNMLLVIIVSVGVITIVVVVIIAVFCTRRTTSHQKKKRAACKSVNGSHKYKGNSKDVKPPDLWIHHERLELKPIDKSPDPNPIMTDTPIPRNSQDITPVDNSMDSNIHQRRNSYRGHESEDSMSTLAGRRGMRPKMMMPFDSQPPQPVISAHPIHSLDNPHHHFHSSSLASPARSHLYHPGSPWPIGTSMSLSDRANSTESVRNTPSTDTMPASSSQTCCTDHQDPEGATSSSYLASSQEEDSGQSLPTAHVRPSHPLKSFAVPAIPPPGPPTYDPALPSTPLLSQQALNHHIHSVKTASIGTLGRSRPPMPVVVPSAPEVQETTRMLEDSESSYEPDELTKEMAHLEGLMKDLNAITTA

[2] = molecular target: integrin β1 (human (endogenous in SK-N-SH)) (UniProt P05556); experiment: as above

## integrin β1 (from UniProt P05556 21-798) (receptor)
[1]
  binding: binds

## Focal Adhesion Kinase (from UniProt Q05397 1-1052) (enzyme)
[2]
  binding: binds
